# Primary screen of a compound library

From ChEMBL document CHEMBL3988442, “University of Dundee, Small-Polar-MMV Screening Library” (2021).

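Assay of Toxoplasma gondii numbers, read through their beta-galactosidase reporter with a colour substrate. Compounds at 50 µM. The record gives no direction; the compounds picked for IC50 retests had high values, so higher reads as fewer parasites. About 18,000 compounds were tested under these conditions; 0.94% (about 170) showed 50% or more at least once.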

Each number is a percent effect as filed. How 0% and 100% were set is not recorded. Most values in the screen are low, and negative values occur. Compounds were drawn at random from those tested, without regard to their results.

compound: Cn1cc(Br)cc1C(=O)NCCc1nncn1C1CC1
percent effect: 0.2326

compound: CC(C)C(CN)N1CCCC1 (centres unmarked)
percent effect: -8.368

compound: CNCC1CCCN1C(=O)c1cccc(C)c1F (centres unmarked)
percent effect: 3.177

compound: Cc1nc(CN)ccc1C(C)O (centres unmarked)
percent effect: 11.75

compound: CC1=CC(=O)N(C2CCCC2)C1=O
percent effect: -11.81

compound: CN(CCc1ccccn1)CCN1CCCC1=O
percent effect: 5.256

compound: C[C@@H](C(=O)NCCCc1cccnc1)n1cnnn1
percent effect: -4.278

compound: Cc1cccc(NC(C)Cn2cncn2)n1 (centres unmarked)
percent effect: -15.85

compound: Cc1cc(C)c(CNC(=O)C2CCCO2)c(=O)[nH]1 (centres unmarked)
percent effect: -15.89

compound: N[C@H]1CN(CC(=O)N2CCCCC2)C[C@@H]1C1CC1
percent effect: 3.394

compound: COc1ccccc1N1CCC(Sc2cnn[nH]2)C1=O (centres unmarked)
percent effect: -2.921

compound: Cc1ccc(C(=O)NC2CCN(CC(N)=O)CC2)cc1
percent effect: 0.4798

compound: CNS(=O)(=O)CC(=O)Nc1cc(Br)c(F)cc1C
percent effect: 1.95

compound: CN(C(=O)CN1CCC(O)CC1)C1CCCCC1
percent effect: 4.459

compound: CSCc1noc(CN2CCCC(N(C)C)CC2)n1 (centres unmarked)
percent effect: 4.684

compound: CCn1c(CN(C)CC(F)(F)F)nnc1[C@H]1C[C@@H](N)C1
percent effect: 15.11

compound: COCCCNC(=O)CC1Nc2ccccc2NC1=O (centres unmarked)
percent effect: 1.224

compound: CCn1nc(C)c(S(=O)(=O)Nc2cc(Cl)ccn2)c1C
percent effect: -3.669

compound: N[C@@H]1CC[C@@H]1NC(=O)COCc1ccccc1
percent effect: -14.54

compound: CC1=NOC(C(=O)NCCCn2nc(C)nc2C)C1 (centres unmarked)
percent effect: -5.791

compound: CCOc1ccccc1NC(=O)NC1CCN(C)CC1
percent effect: -15.6

compound: CCn1ccc(CNC(=O)CCn2cc(Br)c(C)n2)n1
percent effect: -9.183

compound: CNCCN(C)C1CCN(C)CC1
percent effect: -0.8812

compound: NC(=O)c1cc(NC(=O)N2CCCC2)ccc1Cl
percent effect: -7.633

compound: CNC(=O)c1sccc1S(=O)(=O)N1CCCC1
percent effect: -0.2894

compound: CCc1nsc(N2CCN(C(=O)[C@@H](C)N)CC2)n1
percent effect: -2.537

compound: Nc1nc(CNC(=O)CN2CCCCCC2)cs1
percent effect: -3.632

compound: CN(CCn1cccn1)c1ncccc1S(N)(=O)=O
percent effect: -2.179

compound: COc1ccccc1N1CCCC(N)C1 (centres unmarked)
percent effect: 48.51

compound: COc1ccc(CNC(=O)CN(C)CC(C)(C)O)cc1
percent effect: -11.12

compound: CC(C1CCNCC1)N1CCN(C)CC1 (centres unmarked)
percent effect: 0.8035

compound: Cc1ccc(C(C)NC(=O)CNC(=O)C2CCCC2)o1 (centres unmarked)
percent effect: -6.649

compound: CCC(C)NC(=O)c1cc(F)cc(F)c1 (centres unmarked)
percent effect: 3.664

compound: Cc1cc(N2CCN(CCO)CC2)nc2ccccc12
percent effect: -19.49

compound: O=C(NCCCn1cccn1)c1nc2ncccn2n1
percent effect: -2.582

compound: CNCc1n[nH]c(=O)n1-c1ccc(C)c(Cl)c1
percent effect: 9.689

compound: Cc1ccc(CNC(=O)c2ccncc2)cc1F
percent effect: 4.622

compound: O=C(Cn1ccc(=O)[nH]c1=O)NCc1cccc(Cl)c1
percent effect: 6.15

compound: CC(CO)N1CCCN(c2cccc(C#N)n2)CC1 (centres unmarked)
percent effect: -6.696

compound: CCN1CCC(NC(=O)c2c(F)cccc2F)CC1
percent effect: -17.16

compound: NC(=O)C1(CNC(=O)c2cc(Cl)sc2Cl)CCOCC1
percent effect: -17.37

compound: CC(=O)Nc1cccc(CN2CCOCC2)c1
percent effect: 5.598

compound: CCNS(=O)(=O)C1CCN(Cc2ccn(C)c2)C1 (centres unmarked)
percent effect: 11.77

compound: O=C1NC2(CCCCC2)C(=O)Nc2ccccc21
percent effect: 8.633

compound: CC(C)CC(CNc1ccc2nnnn2n1)N(C)C (centres unmarked)
percent effect: -1.215

compound: Cc1cc(C)cc(NC(=O)CCN2CCSCC2)c1
percent effect: 2.217

2 of the entries, repeated:

| compound | percent effect |
|---|---|
| `NC(=O)C1(CNC(=O)c2cc(Cl)sc2Cl)CCOCC1` | -17.37 |
| `CNCC1CCCN1C(=O)c1cccc(C)c1F` (centres unmarked) | 3.177 |